Data as given in PubChem BioAssay AID504774 (Drosophila RNAi Screening Center, 2011)

Screen: 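Knock-downs that shift viability of MMS-exposed cells relative to untreated ones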 (primary screen)
Cells: Drosophila Kc167 cells
Reagent: long dsRNA against Drosophila genes, about 0.25 µg dsRNA per well
Time to read-out: about 6 days: 3 days knock-down, then 3 days with or without MMS
Challenge: methyl methanesulphonate 0.004% (w/v) for 3 days after knock-down
Read-out: 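Viability in wells given MMS, read as ATP luminescence, normalised by quantiles plate by plate and averaged across replicates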
Scale: mean viability with MMS and viability with MMS: higher = more surviving cells after MMS
The deposit covers about 23,000 reagents; shown is a random part of those that have a named target and a result. 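Values are quantile-normalised luminescence on an arbitrary scale; higher means more cells surviving MMS.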 The numbers tell different reagents against one gene apart. A plus sign joins genes that one reagent is predicted to hit.

The first 5 records, ahead of the listing:
no.	Target gene	dsRNA no.	mean viability with MMS	viability with MMS, replicate 1	viability with MMS, replicate 2
1	link	1	3.39e6	3.81e6	3.97e6
2	lva (lava lamp)	1	3.34e6	3.74e6	3.87e6
3	spdi (split discs)	1	3.53e6	3.98e6	4.04e6
4	spdi (split discs)	2	3.60e6	4.08e6	4.09e6
5	asRNA:CR31084 (antisense RNA:CR31084)	1	3.48e6	4.00e6	3.93e6

The listing, repeating the preview:
no.	Target gene	dsRNA no.	mean viability with MMS	viability with MMS, replicate 1	viability with MMS, replicate 2
1	link	1	3.39e6	3.81e6	3.97e6
2	lva (lava lamp)	1	3.34e6	3.74e6	3.87e6
3	spdi (split discs)	1	3.53e6	3.98e6	4.04e6
4	spdi (split discs)	2	3.60e6	4.08e6	4.09e6
5	asRNA:CR31084 (antisense RNA:CR31084)	1	3.48e6	4.00e6	3.93e6
6	wek (weckle)	1	3.50e6	3.93e6	3.99e6
7	Gr64f (Gustatory receptor 64f)	1	3.49e6	3.97e6	3.94e6
8	COX7AL2 (Cytochrome c oxidase subunit 7A-like 2)	1	3.61e6	4.00e6	4.19e6
9	CG10543	1	3.32e6	3.71e6	3.78e6
10	CG10543	2	3.55e6	4.18e6	3.90e6
11	Gapvd1 (GTPase activating protein and VPS9 domains 1)	1	3.40e6	3.83e6	3.89e6
12	CG10211	1	3.19e6	3.64e6	3.68e6
13	SecS (Sec synthetase)	1	3.76e6	4.31e6	4.16e6
14	Ir54a + sub	1	3.55e6	4.00e6	4.05e6
15	NKCC (sodium potassium chloride cotransporter)	1	3.50e6	3.78e6	4.15e6
16	NKCC (sodium potassium chloride cotransporter)	2	3.61e6	4.12e6	4.07e6
17	CG13707	1	3.63e6	4.07e6	4.17e6
18	Lk6 (Lk6 kinase)	1	3.62e6	4.07e6	4.09e6
19	Lk6 (Lk6 kinase)	2	3.58e6	4.01e6	4.13e6
20	CG42390	1	3.29e6	3.71e6	3.79e6
21	CG42390	2	3.52e6	3.95e6	4.07e6
22	CG42390	3	3.18e6	3.59e6	3.52e6
23	CG13364	1	3.73e6	4.28e6	4.13e6
24	CG13364	2	3.58e6	4.03e6	4.07e6
25	nolo (no long nerve cord)	1	3.70e6	4.08e6	4.35e6
26	nolo (no long nerve cord)	2	3.59e6	4.14e6	4.02e6
27	nolo (no long nerve cord)	3	3.49e6	4.01e6	3.89e6
28	CG7987	1	3.45e6	3.88e6	3.90e6
29	AP-1-2beta (Adaptor Protein complex 1/2, beta subunit)	1	3.43e6	3.95e6	3.84e6
30	CG9313	1	3.69e6	4.11e6	4.30e6
31	CG13049	1	3.55e6	4.03e6	4.03e6
32	D12	1	3.32e6	3.91e6	3.48e6
33	CG12898	1	3.60e6	4.10e6	4.03e6
34	CG14315	1	3.62e6	4.11e6	4.08e6
35	CG4133	1	3.29e6	3.67e6	3.72e6
36	CG4133	2	3.57e6	4.10e6	4.01e6
37	CG7409	1	3.52e6	4.01e6	3.99e6
38	PTP-ER (Protein tyrosine phosphatase-ERK/Enhancer of Ras1)	1	3.60e6	3.91e6	4.29e6
39	PTP-ER (Protein tyrosine phosphatase-ERK/Enhancer of Ras1)	2	3.44e6	3.81e6	4.00e6
40	CG31454	1	3.74e6	4.20e6	4.23e6
41	CG31454	2	3.32e6	3.91e6	3.77e6
42	Xxylt (Xyloside xylosyltransferase)	1	3.29e6	3.89e6	3.48e6
43	be (ben)	1	3.56e6	4.05e6	3.52e6
44	be (ben)	2	3.70e6	4.17e6	4.14e6
45	be (ben)	3	3.56e6	3.99e6	4.09e6
46	CG32726	1	3.84e6	4.39e6	4.21e6
47	D2hgdh (D-2-hydroxyglutaric acid dehydrogenase)	1	3.49e6	4.03e6	3.89e6
48	IntS11 (Integrator 11)	1	3.39e6	3.93e6	3.79e6
49	CG18420	1	3.49e6	3.90e6	4.03e6
50	Hmx (H6-like-homeobox)	1	3.32e6	3.83e6	3.70e6
51	Hmx (H6-like-homeobox)	2	3.34e6	3.59e6	3.97e6
52	Hmx (H6-like-homeobox)	3	3.10e6	3.61e6	3.85e6
53	CG31523	1	3.46e6	3.82e6	4.06e6
54	CG31523	2	3.47e6	3.95e6	3.90e6
55	Dhc1 (Dynein heavy chain 1)	1	3.75e6	4.19e6	4.13e6
56	NTPase	1	3.72e6	4.21e6	4.28e6
57	MAN1	1	3.52e6	4.19e6	3.82e6
58	CG12078	1	3.58e6	3.97e6	4.12e6
59	CCAP-R (Crustacean cardioactive peptide receptor)	1	3.58e6	4.04e6	4.06e6
60	CCAP-R (Crustacean cardioactive peptide receptor)	2	3.64e6	4.12e6	4.14e6
61	CG14551	1	3.53e6	3.93e6	4.06e6
62	Rgk3 (Rad, Gem/Kir family member 3)	1	3.61e6	3.91e6	3.91e6
63	Rgk3 (Rad, Gem/Kir family member 3)	2	3.67e6	4.07e6	4.23e6
64	Rgk3 (Rad, Gem/Kir family member 3)	3	3.52e6	3.99e6	3.97e6
65	Rgk3 (Rad, Gem/Kir family member 3)	4	3.66e6	4.16e6	4.13e6
66	LamC (Lamin C)	1	3.56e6	3.99e6	4.10e6
67	RpS18 (Ribosomal protein S18)	1	2.96e6	3.53e6	3.55e6
68	Cul5 (Cullin 5)	1	3.46e6	3.91e6	3.91e6
